Measurements from the supplement of paper PMC9549374.
The other results are listed elsewhere or left out. Rule as the data show it: active = 2-fold of DMSO or more and inactive = the rest. Single values of this set are uncertain. Some low values are a fixed figure set by the source, not a measured ratio.

Tested on: CM7/1-hgem mouse ES cell-derived cardiomyocytes
Assay: maximal number of mAG-hGem(1/110)-positive cardiomyocytes over 96 h, fold-change vs DMSO; higher = more cardiomyocyte cell cycle activity
Conditions: 1 µM; 96 (max over 12 h time points) h

SMILES | maximal number
Clc1ccc(CO/N=C(\Cn2ccnc2)c2ccc(Cl)cc2Cl)c(Cl)c1 | inactive: 0
CC1(O)CCC(C(C)(C)O)CC1 (configuration not stated) | inactive: 1
CC1(C)C(=O)[C@H]2C[C@]3(O)C4=CC(=O)O[C@@H](c5ccoc5)[C@@]4(C)CCC3[C@](C)(C2=O)[C@H]1CC(=O)O (some centres not stated) | inactive: 1
CC[C@H](CC[C@@H](C)[C@H]1CC[C@H]2[C@@H]3CC=C4C[C@@H](O)CC[C@]4(C)[C@H]3CC[C@]12C)C(C)C [beta-SITOSTEROL] | inactive: 0.5
O=C(OC[C@H]1O[C@@H](OC(=O)c2cc(O)c(O)c(OC(=O)c3cc(O)c(O)c(O)c3)c2)[C@H](OC(=O)c2cc(O)c(O)c(OC(=O)c3cc(O)c(O)c(O)c3)c2)[C@@H](OC(=O)c2cc(O)c(O)c(OC(=O)c3cc(O)c(O)c(O)c3)c2)[C@@H]1OC(=O)c1cc(O)c(O)c(OC(=O)c2cc(O)c(O)c(O)c2)c1)c1cc(O)c(O)c(OC(=O)c2cc(O)c(O)c(O)c2)c1 | inactive: 1
CC(C)c1c(O)c(-c2cc3c(c(C(C)C)c2O)CCC2C(C)(C)CCC[C@]32C)cc2c1CCC1C(C)(C)CCC[C@]21C (some centres not stated) | inactive: 0
C[N+](C)(C)CCO.[Cl-] | inactive: 1
COC(=O)Nc1nc2cc(Sc3ccccc3)ccc2[nH]1 | inactive: 1
C[n+]1cccc(C(=O)[O-])c1 | inactive: 1
COc1cc2ncnc(Nc3ccc(F)c(Cl)c3)c2cc1OCCCN1CCOCC1 | inactive: 1
CC(C)CCCC(C)NC(C)C (configuration not stated) | inactive: 1
CN1C2CCCC1CC(NC(=O)c1nn(C)c3ccccc13)C2 (configuration not stated) | inactive: 1

Some of these compounds in order of length of the SMILES, low to high.
SMILES | maximal number
CC1(O)CCC(C(C)(C)O)CC1 (configuration not stated) | inactive: 1
CC(C)c1c(O)c(-c2cc3c(c(C(C)C)c2O)CCC2C(C)(C)CCC[C@]32C)cc2c1CCC1C(C)(C)CCC[C@]21C (some centres not stated) | inactive: 0
CC1(C)C(=O)[C@H]2C[C@]3(O)C4=CC(=O)O[C@@H](c5ccoc5)[C@@]4(C)CCC3[C@](C)(C2=O)[C@H]1CC(=O)O (some centres not stated) | inactive: 1
